Measured data: PubChem BioAssay AID1224830 (NIAID, 2016)
Test: 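Regulators of TLR4 signalling towards TNF-alpha in macrophage-like cells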 (primary screen). Cells: human THP-1 monocytic leukaemia cells, TNF dual-luciferase reporter clone, PMA-differentiated to macrophage-like cells. Reagents: siRNA pool against human genes, 50 nM. Time to read-out: LPS for 4 h, given about 3 days after siRNA transfection. Treatment: bacterial LPS (TLR4 ligand), 10 ng/ml. Detection: 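TNF firefly reporter luminescence divided by renilla, normalised to the plate median, then turned into a robust z-score for each replicate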. Reading the numbers: TNF reporter robust z-score: higher = stronger TNF reporter response to LPS. Rule for the call: 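Each well counts as active if its z-score is over 2.8 or under -1.5; controls are left without a call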.
The whole screen tested about 18,000 reagents; shown is an unselected part. Of all reagents, about 2,900 (16%) are marked active. 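Calls are made per well; low scores hint the gene aids the LPS response, high scores that it dampens it.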 Unmarked entries are inactive. Repeated entries: four replicate wells of each siRNA pool. No sequences are given here.

For SLC9A5, the entry reads TNF reporter robust z-score 1.13.
SLC9A5 scored TNF reporter robust z-score 1.64.
Knock-down of SLC9A5 resulted in: TNF reporter robust z-score 0.86.
Knock-down of SLC9A5 resulted in: TNF reporter robust z-score 2.28.
For CXCL8, the entry reads TNF reporter robust z-score -0.76.
For CXCL8, the values are TNF reporter robust z-score -0.89.
Depletion of CXCL8 came out at: TNF reporter robust z-score -0.19.
CXCL8 gave TNF reporter robust z-score -0.6.
THNSL1 gave TNF reporter robust z-score -0.95.
THNSL1 scored TNF reporter robust z-score -0.85.
With knock-down of THNSL1, the record shows TNF reporter robust z-score -0.75.
Knock-down of THNSL1 resulted in: TNF reporter robust z-score -0.72.

Sorted by “TNF reporter robust z-score” (low to high): 2 of the entries above.
THNSL1 → TNF reporter robust z-score = -0.85
THNSL1 → TNF reporter robust z-score = -0.75

Additional reagents:
With knock-down of TRMT1, the screen gave TNF reporter robust z-score 0.69.
For TRMT1, the values are TNF reporter robust z-score 2.13.
TRMT1 gave TNF reporter robust z-score 1.81.
With knock-down of TRMT1, the record shows TNF reporter robust z-score 2.2.
With knock-down of THNSL2 the results were TNF reporter robust z-score 3.33 (active).
For THNSL2, the entry reads TNF reporter robust z-score -1.42.
For THNSL2, the values are TNF reporter robust z-score 0.94.
Depletion of THNSL2 gave: TNF reporter robust z-score 1.
